For at least one compound, name, drawing or mass did not settle the structure.
Assay: DIO mice: body weight, fat mass, blood glucose after daily s.c. injection for seven days
Format: in vivo
Settings: FIG. 15

## CCCCCCCCCCCCCCCC(=O)N[C@@H](CCC(=O)NCCCC[C@H](NC(=O)[C@H](C)NC(=O)[C@H](C)NC(=O)[C@H](CCC(N)=O)NC(=O)CNC(=O)[C@H](CCC(=O)O)NC(=O)[C@H](CC(C)C)NC(=O)[C@H](Cc1ccc(O)cc1)NC(=O)[C@H](CO)NC(=O)[C@H](CO)NC(=O)[C@@H](NC(=O)[C@H](CC(=O)O)NC(=O)[C@H](CO)NC(=O)[C@@H](NC(=O)[C@H](Cc1ccccc1)NC(=O)[C@@H](NC(=O)CNC(=O)[C@H](CCC(=O)O)NC(=O)[C@H](C)NC(=O)[C@@H](N)Cc1cnc[nH]1)[C@@H](C)O)[C@@H](C)O)C(C)C)C(=O)N[C@@H](CCC(=O)O)C(=O)N[C@@H](Cc1ccccc1)C(=O)N[C@H](C(=O)N[C@@H](C)C(=O)N[C@@H](Cc1c[nH]c2ccccc12)C(=O)N[C@@H](CC(C)C)C(=O)N[C@H](C(=O)N[C@@H](CCCNC(=N)N)C(=O)NCC(=O)N[C@@H](CCCNC(=N)N)C(=O)NCC(=O)O)C(C)C)[C@@H](C)CC)C(=O)O [Liraglutide]
  decrease in body weight: ~12%

Reference: patent publication US8450270B2 (Indiana University Research and Technology Corporation, priority 2008, dated 2013)
